Columns and labels:
[1] = Odor evaluated olfactorily by a human subject
[2] = Spreading area of a drop on the volar forearm; type: in vivo; conditions: 10 ul drop, six subjects

| Structure (SMILES) | Odor [1] | Spreading Area, cm after 1 min. [2] [cm] | Spreading Area, cm after 3 min. [2] [cm] | Spreading Area, cm after 5 min. [2] [cm] |
| --- | --- | --- | --- | --- |
| CCCCCCC(=O)OCC(C)(C)COC(=O)CCCCCC [neopentyl glycol diheptanoate] | Mild, | 2.1 | 3.2 | 3.7 |
| CCCCCCC(C)OC(=O)CCC(=O)OC(C)CCCCCC (centres unmarked) [bis(1-methylheptyl) butanedioate] | Mild, | 2.0 | 2.7 | 3.2 |

— patent publication US20200255367A1, “Diesters for Personal Care Applications Derived from 1-Methylheptyl Alcohol” (Inolex Investment Corporation, priority 2016, published 2020)
